These results are taken from ChEMBL document CHEMBL4808211, “Exploration and Biological Evaluation of Basic Heteromonocyclic Propanamide Derivatives as SARDs for the Treatment of Enzalutamide-Resistant Prostate Cancer” (J Med Chem, 2021).

The conditions of data set [1]: mouse, microsomes, 1 h.
For the next data set, the target named is T1, Androgen receptor (Rattus norvegicus, UniProt P15207).
T1 sequence (P15207 whole entry): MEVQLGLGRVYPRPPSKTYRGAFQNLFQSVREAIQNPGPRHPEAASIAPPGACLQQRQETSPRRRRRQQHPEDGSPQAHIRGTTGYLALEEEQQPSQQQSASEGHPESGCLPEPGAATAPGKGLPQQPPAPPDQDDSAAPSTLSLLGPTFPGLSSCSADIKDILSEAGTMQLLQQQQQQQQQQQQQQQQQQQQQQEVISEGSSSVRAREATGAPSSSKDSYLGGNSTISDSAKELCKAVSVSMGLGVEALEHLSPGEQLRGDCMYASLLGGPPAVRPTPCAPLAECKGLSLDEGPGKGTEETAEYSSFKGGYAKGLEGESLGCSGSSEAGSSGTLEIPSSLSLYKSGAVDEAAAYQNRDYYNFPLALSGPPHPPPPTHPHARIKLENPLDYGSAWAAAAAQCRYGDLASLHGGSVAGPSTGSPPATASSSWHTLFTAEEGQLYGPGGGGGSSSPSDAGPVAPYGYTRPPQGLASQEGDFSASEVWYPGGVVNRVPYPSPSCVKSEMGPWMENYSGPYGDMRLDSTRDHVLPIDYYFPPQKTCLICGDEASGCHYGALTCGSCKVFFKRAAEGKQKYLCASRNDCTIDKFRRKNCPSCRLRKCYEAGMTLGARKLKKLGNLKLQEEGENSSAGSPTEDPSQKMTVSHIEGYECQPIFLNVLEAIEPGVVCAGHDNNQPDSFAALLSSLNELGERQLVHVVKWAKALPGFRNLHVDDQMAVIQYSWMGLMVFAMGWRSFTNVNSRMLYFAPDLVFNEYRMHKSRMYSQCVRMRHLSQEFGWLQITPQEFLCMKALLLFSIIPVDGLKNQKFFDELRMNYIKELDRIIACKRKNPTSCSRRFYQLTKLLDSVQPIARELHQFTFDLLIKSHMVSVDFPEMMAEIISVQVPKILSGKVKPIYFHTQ

A short description of data set [2]: in vivo. To be noted: C57BL/6J, mouse, po, 30 mg/kg.
Data set [3] is described as follows: in vivo. Conditions: C57BL/6J, mouse, po, 30 mg/kg. The source holds these as a separate data set.

Molecules are shown by their SMILES. pKi: −log10 of the molar value. Where only a bound is given, the exact number is not on record here.

In turn, `C[C@](O)(Cn1cc(F)cn1)C(=O)Nc1ccc(C#N)c(C(F)(F)F)c1` had a CLH in data set [1] of 0.89 mL/min.

Regarding `C[C@](O)(CNc1ccc(C#N)c(C(F)(F)F)c1)C(=O)Nc1ccc(C#N)c(C(F)(F)F)c1`, the negative-log Ki (pKi) (commonly −log10 of the Ki, conventionally taken in molar units) on Androgen receptor was less than 5.00.

`C[C@](O)(CN1CCCC1)C(=O)Nc1ccc(C#N)c(Cl)c1` gave a pKi on Androgen receptor of less than 5.00.

On Androgen receptor, `C[C@](O)(Cn1cncn1)C(=O)Nc1ccc(C#N)c(C(F)(F)F)c1` had a negative logarithm of the Ki (pKi) of less than 5.00.

For the molecule `C[C@](O)(Cn1cnc(C(F)(F)F)n1)C(=O)Nc1ccc(C#N)c(C(F)(F)F)c1`, the pKi at Androgen receptor was less than 5.00.

`C[C@](O)(Cn1cc(-c2ccc(F)cc2)nn1)C(=O)Nc1ccc(C#N)c(C(F)(F)F)c1` gave a pKi on Androgen receptor of less than 5.00. This molecule also registered a concentration at 24 h in “in vivo [2]” of 332 nM. In addition, the concentration at 6 h in “in vivo [3]” was found to be 453 nM.

As to `C[C@](O)(Cn1cncc1Br)C(=O)Nc1ccc(C#N)c(C(F)(F)F)c1`, the pKi at Androgen receptor was less than 5.00.

Molecule `C[C@](O)(Cn1ccnc1)C(=O)Nc1ccc(C#N)c(Cl)c1` showed a pKi on Androgen receptor of less than 5.00.

Molecule `C[C@](O)(CNc1nc[nH]n1)C(=O)Nc1ccc(C#N)c(C(F)(F)F)c1` showed a pKi at Androgen receptor of less than 5.00.
